Test results taken from the supplement of paper PMC10849652.
Some of the results follow.

Amino acid sequences for entries named in this document (tags omitted). A change or cut given only in a name is not applied to a line headed by its entry.
UniProt P46459: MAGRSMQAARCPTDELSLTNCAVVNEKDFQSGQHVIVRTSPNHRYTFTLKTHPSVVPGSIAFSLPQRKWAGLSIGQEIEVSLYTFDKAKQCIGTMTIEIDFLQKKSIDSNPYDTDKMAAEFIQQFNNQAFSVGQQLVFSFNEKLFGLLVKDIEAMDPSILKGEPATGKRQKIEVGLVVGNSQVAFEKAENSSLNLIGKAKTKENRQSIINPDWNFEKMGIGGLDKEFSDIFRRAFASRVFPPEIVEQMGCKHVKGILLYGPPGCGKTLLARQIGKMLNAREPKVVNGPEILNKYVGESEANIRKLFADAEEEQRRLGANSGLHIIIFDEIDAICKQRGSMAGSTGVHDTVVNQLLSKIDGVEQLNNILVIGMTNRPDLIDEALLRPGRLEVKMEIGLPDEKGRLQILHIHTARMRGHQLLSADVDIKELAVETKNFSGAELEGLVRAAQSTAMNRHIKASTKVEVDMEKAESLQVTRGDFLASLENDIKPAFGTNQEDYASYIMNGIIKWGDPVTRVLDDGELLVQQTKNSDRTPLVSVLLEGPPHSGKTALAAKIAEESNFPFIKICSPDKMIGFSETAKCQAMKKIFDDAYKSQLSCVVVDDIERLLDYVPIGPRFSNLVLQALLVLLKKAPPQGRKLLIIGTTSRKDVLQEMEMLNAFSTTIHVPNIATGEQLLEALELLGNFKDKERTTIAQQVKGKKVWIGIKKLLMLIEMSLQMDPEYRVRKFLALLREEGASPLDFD
UniProt Q9Y2X3: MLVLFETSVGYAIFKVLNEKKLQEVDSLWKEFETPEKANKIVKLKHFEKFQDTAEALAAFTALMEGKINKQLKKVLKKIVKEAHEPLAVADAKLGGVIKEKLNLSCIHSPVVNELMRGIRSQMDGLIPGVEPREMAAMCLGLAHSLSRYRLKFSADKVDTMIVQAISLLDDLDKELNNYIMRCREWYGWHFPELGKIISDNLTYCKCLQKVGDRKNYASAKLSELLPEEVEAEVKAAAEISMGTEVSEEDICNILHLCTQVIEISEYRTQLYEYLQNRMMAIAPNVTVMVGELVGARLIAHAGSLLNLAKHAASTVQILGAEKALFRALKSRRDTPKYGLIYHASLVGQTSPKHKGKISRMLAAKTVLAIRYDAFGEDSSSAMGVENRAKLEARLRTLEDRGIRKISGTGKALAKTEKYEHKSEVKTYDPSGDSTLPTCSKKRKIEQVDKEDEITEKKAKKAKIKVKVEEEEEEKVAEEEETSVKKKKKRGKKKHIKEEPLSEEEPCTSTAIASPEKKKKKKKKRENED
UniProt P78316: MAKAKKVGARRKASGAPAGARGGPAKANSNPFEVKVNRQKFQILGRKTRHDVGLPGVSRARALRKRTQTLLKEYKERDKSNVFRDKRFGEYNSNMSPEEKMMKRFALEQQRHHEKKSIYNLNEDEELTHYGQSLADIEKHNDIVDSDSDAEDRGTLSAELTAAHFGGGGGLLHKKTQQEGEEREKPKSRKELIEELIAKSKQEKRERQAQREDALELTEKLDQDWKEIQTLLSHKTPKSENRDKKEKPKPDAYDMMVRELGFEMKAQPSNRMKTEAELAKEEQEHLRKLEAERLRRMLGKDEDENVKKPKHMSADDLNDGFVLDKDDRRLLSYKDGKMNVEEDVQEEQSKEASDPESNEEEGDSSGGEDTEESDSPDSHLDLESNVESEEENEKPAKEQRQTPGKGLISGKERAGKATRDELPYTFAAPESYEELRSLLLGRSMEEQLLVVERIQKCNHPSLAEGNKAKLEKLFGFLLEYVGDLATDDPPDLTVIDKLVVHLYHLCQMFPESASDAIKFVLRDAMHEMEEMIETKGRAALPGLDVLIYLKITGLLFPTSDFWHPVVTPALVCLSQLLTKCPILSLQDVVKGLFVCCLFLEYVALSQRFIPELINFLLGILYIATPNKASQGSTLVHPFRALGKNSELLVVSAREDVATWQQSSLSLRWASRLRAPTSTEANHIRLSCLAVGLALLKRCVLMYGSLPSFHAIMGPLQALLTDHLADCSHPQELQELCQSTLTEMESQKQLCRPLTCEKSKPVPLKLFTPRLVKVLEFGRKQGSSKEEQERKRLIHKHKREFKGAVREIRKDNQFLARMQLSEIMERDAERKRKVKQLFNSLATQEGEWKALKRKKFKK
UniProt Q969T7: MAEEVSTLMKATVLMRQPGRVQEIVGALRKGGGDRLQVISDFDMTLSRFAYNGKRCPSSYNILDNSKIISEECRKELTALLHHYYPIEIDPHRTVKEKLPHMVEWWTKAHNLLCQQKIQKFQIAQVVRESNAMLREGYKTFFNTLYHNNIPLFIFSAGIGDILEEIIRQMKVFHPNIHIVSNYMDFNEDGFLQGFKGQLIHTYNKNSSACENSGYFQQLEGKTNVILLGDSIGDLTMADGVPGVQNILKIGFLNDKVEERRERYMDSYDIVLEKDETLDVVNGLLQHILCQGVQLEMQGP
UniProt Q5TFE4: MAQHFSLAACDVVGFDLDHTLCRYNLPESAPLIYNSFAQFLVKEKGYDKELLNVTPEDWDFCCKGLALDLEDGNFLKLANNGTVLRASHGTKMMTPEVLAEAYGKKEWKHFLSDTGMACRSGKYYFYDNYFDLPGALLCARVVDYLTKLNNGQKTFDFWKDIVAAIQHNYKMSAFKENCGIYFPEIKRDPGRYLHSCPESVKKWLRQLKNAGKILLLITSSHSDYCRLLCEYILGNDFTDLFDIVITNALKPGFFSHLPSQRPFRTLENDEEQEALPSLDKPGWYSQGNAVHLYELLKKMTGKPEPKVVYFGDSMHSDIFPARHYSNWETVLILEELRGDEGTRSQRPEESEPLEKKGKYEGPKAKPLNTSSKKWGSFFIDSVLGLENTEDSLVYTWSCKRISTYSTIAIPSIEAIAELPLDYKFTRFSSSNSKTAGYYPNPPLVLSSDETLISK
UniProt Q9NZJ9: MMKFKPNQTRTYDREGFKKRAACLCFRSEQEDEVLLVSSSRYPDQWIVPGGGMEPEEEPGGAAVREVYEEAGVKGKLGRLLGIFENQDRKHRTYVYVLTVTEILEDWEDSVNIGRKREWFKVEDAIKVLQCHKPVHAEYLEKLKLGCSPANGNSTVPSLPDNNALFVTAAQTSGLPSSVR
UniProt Q9NPE3: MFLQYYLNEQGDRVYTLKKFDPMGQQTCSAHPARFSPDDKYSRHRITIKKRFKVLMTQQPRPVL
UniProt O75694: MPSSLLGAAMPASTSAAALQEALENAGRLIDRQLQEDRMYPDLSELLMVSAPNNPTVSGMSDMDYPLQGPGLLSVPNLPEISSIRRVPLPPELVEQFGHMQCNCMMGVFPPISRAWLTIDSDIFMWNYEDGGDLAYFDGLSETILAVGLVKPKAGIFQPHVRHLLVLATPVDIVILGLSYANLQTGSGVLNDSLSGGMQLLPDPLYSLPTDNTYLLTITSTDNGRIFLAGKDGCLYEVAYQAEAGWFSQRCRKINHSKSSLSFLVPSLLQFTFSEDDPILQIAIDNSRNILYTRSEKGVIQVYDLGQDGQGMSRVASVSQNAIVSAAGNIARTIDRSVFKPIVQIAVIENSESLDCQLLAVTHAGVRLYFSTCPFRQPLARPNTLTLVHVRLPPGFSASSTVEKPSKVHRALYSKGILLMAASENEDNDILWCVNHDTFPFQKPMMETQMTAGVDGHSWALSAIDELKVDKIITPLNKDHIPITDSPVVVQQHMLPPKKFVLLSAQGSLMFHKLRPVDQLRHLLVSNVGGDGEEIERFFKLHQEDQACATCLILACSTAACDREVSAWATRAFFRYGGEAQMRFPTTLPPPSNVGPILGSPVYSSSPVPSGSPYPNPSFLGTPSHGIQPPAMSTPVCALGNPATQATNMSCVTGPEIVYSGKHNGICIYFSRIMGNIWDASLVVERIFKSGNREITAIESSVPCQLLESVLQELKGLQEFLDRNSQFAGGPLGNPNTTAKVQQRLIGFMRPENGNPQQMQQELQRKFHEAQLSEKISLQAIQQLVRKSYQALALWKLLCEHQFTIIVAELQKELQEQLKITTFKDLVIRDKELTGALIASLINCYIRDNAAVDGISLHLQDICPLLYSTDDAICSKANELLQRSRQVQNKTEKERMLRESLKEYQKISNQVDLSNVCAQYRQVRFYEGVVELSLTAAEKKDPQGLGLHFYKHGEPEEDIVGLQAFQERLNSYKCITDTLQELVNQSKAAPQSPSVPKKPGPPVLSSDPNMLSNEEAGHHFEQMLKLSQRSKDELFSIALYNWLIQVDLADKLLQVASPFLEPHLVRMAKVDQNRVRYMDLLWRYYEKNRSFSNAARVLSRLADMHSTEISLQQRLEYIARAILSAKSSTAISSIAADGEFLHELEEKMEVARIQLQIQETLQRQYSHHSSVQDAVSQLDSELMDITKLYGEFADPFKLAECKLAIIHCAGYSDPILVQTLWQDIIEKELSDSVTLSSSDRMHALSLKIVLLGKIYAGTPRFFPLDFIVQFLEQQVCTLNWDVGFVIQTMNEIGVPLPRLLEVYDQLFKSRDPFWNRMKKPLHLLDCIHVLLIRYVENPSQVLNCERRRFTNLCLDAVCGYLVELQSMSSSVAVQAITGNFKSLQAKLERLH
UniProt Q9Y314: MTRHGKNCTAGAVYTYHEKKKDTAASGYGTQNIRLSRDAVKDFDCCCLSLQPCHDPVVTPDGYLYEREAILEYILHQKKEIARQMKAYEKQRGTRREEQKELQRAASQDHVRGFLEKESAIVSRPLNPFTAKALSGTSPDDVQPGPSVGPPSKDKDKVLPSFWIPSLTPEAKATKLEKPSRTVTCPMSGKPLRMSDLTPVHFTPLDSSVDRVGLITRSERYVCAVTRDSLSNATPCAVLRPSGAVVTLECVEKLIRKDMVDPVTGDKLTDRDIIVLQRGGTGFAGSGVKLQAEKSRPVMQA
UniProt Q96MG7: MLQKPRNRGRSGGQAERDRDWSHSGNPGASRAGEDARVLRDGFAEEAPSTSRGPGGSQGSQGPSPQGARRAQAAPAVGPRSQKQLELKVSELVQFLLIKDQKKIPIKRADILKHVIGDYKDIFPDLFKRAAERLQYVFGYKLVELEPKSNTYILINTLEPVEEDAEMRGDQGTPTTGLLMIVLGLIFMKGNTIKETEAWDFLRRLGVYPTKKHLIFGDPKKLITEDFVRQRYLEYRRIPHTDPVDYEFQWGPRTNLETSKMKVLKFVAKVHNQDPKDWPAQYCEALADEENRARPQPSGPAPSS
UniProt Q96IY1: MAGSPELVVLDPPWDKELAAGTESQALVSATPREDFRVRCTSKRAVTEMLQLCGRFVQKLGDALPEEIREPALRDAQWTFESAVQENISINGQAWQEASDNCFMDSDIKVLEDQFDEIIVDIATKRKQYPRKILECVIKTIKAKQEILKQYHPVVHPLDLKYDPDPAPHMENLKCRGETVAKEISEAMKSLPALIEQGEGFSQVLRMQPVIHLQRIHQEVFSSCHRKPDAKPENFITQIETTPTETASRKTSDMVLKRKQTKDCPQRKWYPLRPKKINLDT
UniProt P55786: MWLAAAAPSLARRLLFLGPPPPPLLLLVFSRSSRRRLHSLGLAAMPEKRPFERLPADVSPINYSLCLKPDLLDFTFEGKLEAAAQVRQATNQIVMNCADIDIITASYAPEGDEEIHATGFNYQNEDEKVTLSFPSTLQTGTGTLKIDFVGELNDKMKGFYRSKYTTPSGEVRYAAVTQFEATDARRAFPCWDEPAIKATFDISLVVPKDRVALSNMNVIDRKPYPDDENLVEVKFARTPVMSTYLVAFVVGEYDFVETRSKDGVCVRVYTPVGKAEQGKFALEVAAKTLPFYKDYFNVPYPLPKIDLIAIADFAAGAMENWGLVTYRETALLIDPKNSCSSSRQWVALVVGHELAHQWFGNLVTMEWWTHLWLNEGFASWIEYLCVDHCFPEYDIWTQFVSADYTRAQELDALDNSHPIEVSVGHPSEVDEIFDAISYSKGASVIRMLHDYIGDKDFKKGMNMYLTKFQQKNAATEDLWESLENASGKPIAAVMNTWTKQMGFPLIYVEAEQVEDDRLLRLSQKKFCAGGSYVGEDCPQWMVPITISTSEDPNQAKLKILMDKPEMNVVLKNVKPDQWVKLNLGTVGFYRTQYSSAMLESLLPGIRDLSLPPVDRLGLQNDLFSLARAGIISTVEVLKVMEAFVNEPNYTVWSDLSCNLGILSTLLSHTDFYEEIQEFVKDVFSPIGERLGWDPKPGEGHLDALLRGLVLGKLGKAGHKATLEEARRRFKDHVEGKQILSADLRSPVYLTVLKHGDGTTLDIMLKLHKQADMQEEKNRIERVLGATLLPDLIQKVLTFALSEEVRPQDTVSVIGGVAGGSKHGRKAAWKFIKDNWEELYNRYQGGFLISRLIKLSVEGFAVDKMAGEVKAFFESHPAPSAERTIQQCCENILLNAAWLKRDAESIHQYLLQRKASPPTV

How the values were obtained:
Assay in all cases: log2 fold change, soluble protein after heating vs DMSO (PISA); higher = thermal stabilisation; K562 lysate, 10 uM; active = over 0.2 and 3.5 SD of the protein, either way, in both replicates (recomputed)
[1] = compound: CCCS(=O)(=O)Nc1ccc(F)c(C(=O)c2c[nH]c3ncc(-c4ccc(Cl)cc4)cc23)c1F [vemurafenib]
Summary of the method: (§1)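 Pellets of K562 cells were dounce-homogenised in PBS pH 7.4 with 1 mM MgCl2, and the crude extract was held at 1 mg/mL protein for a 30 min treatment with 10 μM compound. Aliquots were heated for 3 min over 48°C-58°C and pooled before NP-40 was added to 0.5% at 4°C. The supernatant from 21,000xg for 90 min was quantified by TMTpro 16plex LC-MS/MS with channel sums equalised. Values are reported from duplicates as log-two fold change in thermal stability relative to solvent controls.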

[2] = compound: CCCS(=O)(=O)Nc1ccc(F)c(C(=O)c2c[nH]c3ncc(Cl)cc23)c1F
Summary of the method: as §1

[3] = compound: CCN(CCCOc1ccc2c(Nc3cc(CC(=O)Nc4cccc(F)c4)[nH]n3)ncnc2c1)CCOP(=O)(O)O [barasertib]
Summary of the method: as §1

[4] = compound: CC[C@@H]1C(=O)N(C)c2cnc(Nc3ccc(C(=O)NC4CCN(C)CC4)cc3OC)nc2N1C1CCCC1
Summary of the method: as §1

[5] = compound: CC[C@@H]1C(=O)N(C)c2cnc(Nc3ccc(C(=O)N[C@H]4CC[C@H](N5CCN(CC6CC6)CC5)CC4)cc3OC)nc2N1C(C)C [volasertib]
Summary of the method: as §1

[6] = compound: CCn1c(C(=O)N(C2CC2)C2CC2)cc2c3c(ncn3C)c(Nc3cc(C)n(C)n3)nc21
Summary of the method: as §1

[7] = compound: CCn1cc(-c2ccnc3[nH]c(-c4cccc(CN(C)C)c4)cc23)c(-c2ccc(NC(=O)N(C)C)cc2)n1
Summary of the method: as §1

[8] = compound: CN1CCC(CNc2ccc3ncc(-c4cccc(OC(F)(F)F)c4)n3n2)CC1
Summary of the method: as §1

[9] = compound: CN1CCN(CCOc2cc(OC3CCOCC3)c3c(Nc4c(Cl)ccc5c4OCO5)ncnc3c2)CC1 [saracatinib]
Summary of the method: as §1

[10] = compound: CN1CCN(c2nc(C3=C(c4c[nH]c5ccccc45)C(=O)NC3=O)c3ccccc3n2)CC1 [sotrastaurin]
Summary of the method: as §1

[11] = compound: CN1CC[C@H](c2c(O)cc(O)c3c(=O)cc(-c4ccccc4Cl)oc23)[C@H](O)C1 [alvocidib]
Summary of the method: as §1

[12] = compound: CN1CCc2c(c3ccccc3n2Cc2ccc(C(=O)NO)cc2)C1 [Tubastatin A]
Summary of the method: as §1

[13] = compound: CNC(=O)C1=CC=CC=C1NC2=NC(=NC=C2Cl)NC3=C(C=C(C=C3)N4CCOCC4)OC
Summary of the method: as §1

[14] = compound: CNC(=O)c1ccc(Nc2ncc(C(F)(F)F)c(NCc3nccnc3N(C)S(C)(=O)=O)n2)cc1 [defactinib]
Summary of the method: as §1

[15] = compound: CNc1nc(-c2ccc3c(N)n[nH]c3c2)cc(N2C[C@@H](C(=O)NC3CCCCC3)CC[C@H]2C)n1
Summary of the method: as §1

[16] = compound: COC(=O)N[C@@H](C)CNc1nccc(-c2cn(C(C)C)nc2-c2cc(Cl)cc(NS(C)(=O)=O)c2F)n1 [encorafenib]
Summary of the method: as §1

[17] = compound: COC(=O)[C@H](CCSC)NC(=O)C1=C(C=C(C=C1)NC[C@H](CS)N)C2=CC=CC=C2
Summary of the method: as §1

[18] = compound: COc1cc(Nc2ncc3c(n2)-c2ccc(Cl)cc2C(c2c(F)cccc2OC)=NC3)ccc1C(=O)O [alisertib]
Summary of the method: as §1

[19] = compound: COc1cc2nc(-c3cc(F)ccc3O)nc(N[C@@H]3CNC[C@H]3C(C)(C)O)c2cc1OC
Summary of the method: as §1

[20] = compound: COc1cc2ncnc(Nc3ccc(F)c(Cl)c3)c2cc1OCCCN1CCOCC1 [gefitinib]
Summary of the method: as §1

Measured: log2 fold change

NSF (UniProt P46459)
inactive: [1] -0.003 | [2] 0.015 | [3] 0.019 | [4] -0.026 | [5] -0.051 | [6] 0.019 | [7] 0.014 | [8] -0.077 | [9] 0.019 | [10] -0.013 | [11] -0.013 | [12] -0.051 | [13] 0.015 | [14] -0.011 | [15] -0.023 | [16] -0.007 | [17] 0.128 | [18] 0.021 | [19] -0.009 | [20] 0.015

NOP58 (UniProt Q9Y2X3)
inactive: [1] -0.003 | [2] 0.04 | [3] 0.014 | [4] 0.003 | [5] -0.018 | [6] 0.014 | [7] 0.037 | [8] -0.091 | [9] -0.013 | [10] -0.003 | [11] 0.02 | [12] -0.04 | [13] 0.014 | [14] 0.004 | [15] 0.023 | [16] 0.008 | [17] 0.014 | [18] -0.012 | [19] 0 | [20] 0.001

NOP14 (UniProt P78316)
inactive: [1] 0.027 | [2] -0.014 | [3] -0.034 | [4] -0.036 | [5] -0.009 | [6] 0.024 | [7] 0.012 | [8] 0.016 | [9] 0.034 | [10] 0.023 | [11] -0.014 | [12] -0.029 | [13] 0.01 | [14] 0.051 | [15] 0.021 | [16] 0.028 | [17] 0.134 | [18] 0.02 | [19] -0.023 | [20] -0.007

NT5C3B (UniProt Q969T7)
inactive: [1] -0.002 | [2] -0.001 | [3] -0.087 | [4] 0.052 | [5] -0.083 | [6] 0.021 | [7] 0.014 | [8] 0.069 | [9] 0.058 | [10] 0.015 | [11] 0 | [12] -0.051 | [13] 0.008 | [14] -0.056 | [15] -0.049 | [16] 0.044 | [17] -0.127 | [18] -0.099 | [19] -0.011 | [20] 0.062

NT5DC1 (UniProt Q5TFE4)
inactive: [1] -0.016 | [2] -0.001 | [3] -0.002 | [4] 0.064 | [5] -0.009 | [6] -0.025 | [7] -0.036 | [8] 0.056 | [9] 0.013 | [10] -0.004 | [11] 0.003 | [12] 0.006 | [13] 0.032 | [14] -0.002 | [15] -0.009 | [16] -0.013 | [17] -0.036 | [18] -0.028 | [19] -0.006 | [20] 0.036

NUDT4 (UniProt Q9NZJ9)
inactive: [1] -0.24 | [2] 0.04 | [3] -0.032 | [4] -0.078 | [5] -0.054 | [6] 0.082 | [7] 0.23 | [8] 0.005 | [9] -0.03 | [10] 0.005 | [11] -0.001 | [12] -0.149 | [13] 0.063 | [14] 0.153 | [15] -0.066 | [16] 0.051 | [17] -0.17 | [18] -0.036 | [19] 0.001 | [20] -0.052

NOP10 (UniProt Q9NPE3)
inactive: [1] -0.041 | [2] 0.023 | [3] 0.108 | [4] -0.056 | [5] 0.007 | [6] 0.049 | [7] -0.047 | [8] 0.099 | [9] 0.008 | [10] 0.004 | [11] -0.006 | [12] 0.029 | [13] 0.001 | [14] 0.005 | [15] -0.149 | [16] 0.021 | [17] -0.011 | [18] -0.004 | [19] 0.028 | [20] -0.07

NUP155 (UniProt O75694)
inactive: [1] 0.125 | [2] 0.031 | [3] 0.001 | [4] 0.034 | [5] -0.095 | [6] 0.046 | [7] -0.004 | [8] -0.031 | [9] -0.024 | [10] 0.052 | [11] -0.094 | [12] -0.047 | [13] 0.132 | [14] 0.037 | [15] 0.056 | [16] -0.006 | [17] -0.078 | [18] 0.021 | [19] 0.042 | [20] -0.011

NOSIP (UniProt Q9Y314)
inactive: [1] -0.008 | [2] 0.034 | [3] 0.012 | [4] 0.017 | [5] -0.035 | [6] -0.005 | [7] -0.013 | [8] 0.016 | [9] 0.008 | [10] -0.014 | [11] -0.02 | [12] -0.156 | [13] 0.018 | [14] 0.05 | [15] 0.004 | [16] 0.014 | [17] 0.02 | [18] -0.016 | [19] 0.015 | [20] -0.049

NSMCE3 (UniProt Q96MG7)
inactive: [1] -0.004 | [2] 0.024 | [3] 0.01 | [4] 0.02 | [5] -0.045 | [6] -0.02 | [7] 0.012 | [8] -0.022 | [9] -0.024 | [10] -0.065 | [11] -0.014 | [12] -0.029 | [13] 0.03 | [14] -0.013 | [15] -0.048 | [16] 0.034 | [17] 0.052 | [18] -0.016 | [19] -0.057 | [20] 0.067

NRAS (UniProt P01111)
inactive: [1] -0.069 | [2] -0.003 | [3] 0.09 | [4] 0.017 | [5] 0.006 | [6] -0.023 | [7] -0.036 | [8] -0.009 | [9] 0.037 | [10] -0.015 | [11] 0.023 | [12] -0.009 | [13] -0.003 | [14] 0.006 | [15] -0.015 | [16] -0.008 | [17] -0.085 | [18] -0.008 | [19] -0.004 | [20] -0.001

Copied from the listing (3 entries):
NUP155 (UniProt O75694)
inactive: [1] 0.125 | [2] 0.031 | [3] 0.001 | [4] 0.034 | [5] -0.095 | [6] 0.046 | [7] -0.004 | [8] -0.031 | [9] -0.024 | [10] 0.052 | [11] -0.094 | [12] -0.047 | [13] 0.132 | [14] 0.037 | [15] 0.056 | [16] -0.006 | [17] -0.078 | [18] 0.021 | [19] 0.042 | [20] -0.011

NOSIP (UniProt Q9Y314)
inactive: [1] -0.008 | [2] 0.034 | [3] 0.012 | [4] 0.017 | [5] -0.035 | [6] -0.005 | [7] -0.013 | [8] 0.016 | [9] 0.008 | [10] -0.014 | [11] -0.02 | [12] -0.156 | [13] 0.018 | [14] 0.05 | [15] 0.004 | [16] 0.014 | [17] 0.02 | [18] -0.016 | [19] 0.015 | [20] -0.049

NSMCE3 (UniProt Q96MG7)
inactive: [1] -0.004 | [2] 0.024 | [3] 0.01 | [4] 0.02 | [5] -0.045 | [6] -0.02 | [7] 0.012 | [8] -0.022 | [9] -0.024 | [10] -0.065 | [11] -0.014 | [12] -0.029 | [13] 0.03 | [14] -0.013 | [15] -0.048 | [16] 0.034 | [17] 0.052 | [18] -0.016 | [19] -0.057 | [20] 0.067

(cont.)

NT5C2 (UniProt P49902)
inactive: [1] 0.001 | [2] -0.003 | [3] -0.024 | [4] -0.006 | [5] 0.004 | [6] -0.062 | [7] -0.014 | [8] 0.058 | [9] 0.02 | [10] 0.028 | [11] 0.013 | [12] 0.041 | [13] 0.009 | [14] -0.024 | [15] -0.017 | [16] 0.013 | [17] 0.005 | [18] -0.034 | [19] -0.009 | [20] -0.004

NSL1 (UniProt Q96IY1)
inactive: [1] -0.017 | [2] 0 | [3] -0.06 | [4] 0.005 | [5] 0.007 | [6] 0.048 | [7] -0.016 | [8] 0.047 | [9] 0.012 | [10] 0.005 | [11] -0.026 | [12] -0.084 | [13] 0.016 | [14] 0.034 | [15] -0.004 | [16] -0.055 | [17] 0.094 | [18] 0.019 | [19] -0.014 | [20] -0.004

NPEPPS (UniProt P55786)
inactive: [1] 0.008 | [2] 0.001 | [3] -0.017 | [4] -0.017 | [5] 0.021 | [6] -0.002 | [7] -0.023 | [8] 0.045 | [9] -0.006 | [10] 0.006 | [11] -0.002 | [12] 0.047 | [13] -0.006 | [14] -0.003 | [15] 0.003 | [16] -0.032 | [17] 0.01 | [18] 0.003 | [19] 0.002 | [20] -0.001

NPC1 (UniProt O15118)
inactive: [1] -0.001 | [2] -0.018 | [3] 0.051 | [4] 0.074 | [5] -0.008 | [6] -0.022 | [7] -0.073 | [8] 0.045 | [9] -0.013 | [10] 0.007 | [11] 0.002 | [12] 0.019 | [13] -0.016 | [14] 0.011 | [15] -0.02 | [16] 0.01 | [17] -0.031 | [18] 0.018 | [19] -0.003 | [20] 0.054

NUDT16L1 (UniProt Q9BRJ7)
inactive: [1] -0.02 | [2] 0.004 | [3] 0.01 | [4] -0.006 | [5] -0.027 | [6] 0.01 | [7] -0.04 | [8] 0.028 | [9] -0.042 | [10] -0.026 | [11] -0.044 | [12] 0.049 | [13] -0.015 | [14] 0.038 | [15] -0.002 | [16] 0.021 | [17] -0.075 | [18] 0.002 | [19] -0.012 | [20] -0.013
